Construct, isoform or probe ends are uncertain for at least one entry. Negatives hold for the conditions tested. For some of these results: At least one verdict rests on a figure or table, not on a statement of the authors.
How the values were obtained:
[1] = system: p53 DBD WT; assay: EMSA
[2] = system: p53 DBD R249S; assay: EMSA; conditions: released from DNAJA2 by Hsp70 system, did not regain any DNA-binding activity

TGGCCATCAGGAACATGACCCAACATGTTGAGCTCTGGCA (double strand) [p21 promoter DNA oligo]
binding result ([1]; aggregated p53 after incubation at elevated temperature without chaperone): no binding
binding result ([1]; p53 in complex with DNAJA2 (before Hsp70 release)): no binding
binding result ([1]; untreated p53, 25 C): binds
binding result [2]: no binding

— paper doi:10.1101/2023.11.28.568993
